Measured values from PubChem BioAssay AID651768 (National Center for Advancing Translational Sciences (NCATS), 2012).
About 1,700 (0.47%) of roughly 360,000 compounds were called active. The inconclusive results got no clear call from the source; some entries with a clear call stand among them for comparison. The call rests on the fitted dose curve; in most records, active means well fitted inhibition curve with a large enough effect; inconclusive means small, poorly fitted or top-dose-only effect; inactive means no such curve, though single readings can be large or run the other way. Where the call is inconclusive, the potency comes from a doubtful curve fit.
Further: nearly all actives have a fitted effect of over 55% in size.
On the % scale 0 is the no-effect control and ±100 the full control effect; potency means the concentration at half of the fitted maximal effect.

Amino acid sequences for entries named in this document (tags omitted).
UniProt Q14191, whole entry, looked up: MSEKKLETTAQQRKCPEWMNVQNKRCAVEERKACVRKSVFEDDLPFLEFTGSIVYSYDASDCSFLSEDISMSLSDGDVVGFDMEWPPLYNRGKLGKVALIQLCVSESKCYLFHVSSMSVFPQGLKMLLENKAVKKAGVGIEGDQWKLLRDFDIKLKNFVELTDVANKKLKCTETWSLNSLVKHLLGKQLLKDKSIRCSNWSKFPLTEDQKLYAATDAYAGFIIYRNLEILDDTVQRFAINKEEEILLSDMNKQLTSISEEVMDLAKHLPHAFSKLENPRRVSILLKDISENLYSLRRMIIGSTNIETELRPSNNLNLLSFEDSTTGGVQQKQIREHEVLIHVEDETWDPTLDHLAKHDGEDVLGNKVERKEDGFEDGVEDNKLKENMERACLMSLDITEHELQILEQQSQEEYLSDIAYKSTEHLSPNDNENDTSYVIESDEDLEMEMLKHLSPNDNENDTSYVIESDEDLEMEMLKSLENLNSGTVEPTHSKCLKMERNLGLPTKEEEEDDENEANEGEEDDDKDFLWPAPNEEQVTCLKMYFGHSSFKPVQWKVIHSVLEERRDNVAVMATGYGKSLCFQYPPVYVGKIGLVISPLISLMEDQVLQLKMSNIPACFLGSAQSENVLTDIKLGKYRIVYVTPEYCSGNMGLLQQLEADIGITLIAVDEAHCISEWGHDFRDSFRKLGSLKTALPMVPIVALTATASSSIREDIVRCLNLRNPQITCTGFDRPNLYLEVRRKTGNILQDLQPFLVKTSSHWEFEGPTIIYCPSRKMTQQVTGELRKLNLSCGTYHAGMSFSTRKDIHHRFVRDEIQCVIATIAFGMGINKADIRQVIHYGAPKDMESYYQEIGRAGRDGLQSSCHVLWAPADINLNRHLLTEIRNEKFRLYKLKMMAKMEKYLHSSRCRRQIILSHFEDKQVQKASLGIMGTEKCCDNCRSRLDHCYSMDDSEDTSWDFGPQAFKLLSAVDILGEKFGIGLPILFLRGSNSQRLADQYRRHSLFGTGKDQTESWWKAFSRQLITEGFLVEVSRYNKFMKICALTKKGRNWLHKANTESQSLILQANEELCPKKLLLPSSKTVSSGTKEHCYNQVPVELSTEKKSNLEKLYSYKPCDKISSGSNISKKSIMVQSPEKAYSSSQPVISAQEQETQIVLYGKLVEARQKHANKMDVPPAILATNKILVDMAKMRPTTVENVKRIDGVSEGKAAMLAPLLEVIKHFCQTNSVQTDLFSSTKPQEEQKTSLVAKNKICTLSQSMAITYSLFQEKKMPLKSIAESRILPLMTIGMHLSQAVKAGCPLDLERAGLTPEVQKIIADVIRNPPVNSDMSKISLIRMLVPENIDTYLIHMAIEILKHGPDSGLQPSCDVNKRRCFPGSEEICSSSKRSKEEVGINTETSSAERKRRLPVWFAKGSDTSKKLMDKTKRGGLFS

The compounds below were run against Bifunctional 3'-5' exonuclease/ATP-dependent helicase WRN (Homo sapiens) (UniProt Q14191) (assay: qHTS for Inhibitors of WRN Helicase). Details: WRN helicase unwinding, fluorescent forked duplex, kinetic; activity change, negative = inhibition: at 114 µM (top of the series) unless noted.
How it was run: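 WRN at 20 nM final was preincubated with compound for 15 min at room temperature; reaction started with 100 nM forked duplex oligonucleotide carrying fluorophore and quencher plus 2 mM ATP (final). Unwinding followed kinetically by red fluorescence (ex 525/em 598 nm).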
In the case of `C#CCOCCOCCOCCNc1nc(N2CCN(C(=O)CCCCCCCCCCNC(=O)[C@H](CCCCN)n3cc(C[C@@H](C)CC)nn3)CC2)nc(N2CCN(C(=O)CCCCCCCCCCNC(=O)[C@@H]([C@H](C)O)n3cc(C)nn3)CC2)n1`, the Potency is reported as active: 50.1 µM.
In the case of `O=C1NC(=Nc2cccc(O)c2)S/C1=C\c1cccnc1`, the “activity change, negative = inhibition” value is reported as inactive: -16.3%.
In the case of `CC(C)(C)[C@H]1COC(=O)[C@H](NC(=O)OCC2c3ccccc3-c3ccccc32)C/C=C\C[C@@H](CC(=O)N(CCO)Cc2ccccc2)C(=O)N1`, the Potency is reported as inconclusive: 56.2 µM [inhibitor, partial curve, poor fit].
`O=C(COc1ncnc2sccc12)N1CCN(C(=O)c2ccco2)CC1` was tested, and the Potency was inconclusive: 28.2 µM [inhibitor, partial curve].
With `CCC(CN(C)C)Oc1cc(NCc2ccccc2)c2ncn(C(C)C)c2c1` (configuration not stated) the “activity change, negative = inhibition” value was inactive: 3.19%.
For `COc1ccc(NC(=O)c2cc(S(=O)(=O)N3CCCCC3)ccc2C)cc1S(=O)(=O)N1CCOCC1`, the “activity change, negative = inhibition” value was inactive: -31%.
In the case of `CC(=O)C1=C(c2ccc(Br)cc2)C(=O)c2ccccc2C1=O`, the Potency is reported as inconclusive: 14.1 µM [inhibitor, single point].
`Cc1ccccc1-c1n[nH]c(=S)n1/N=C/C=C/c1ccco1` was tested, and the Potency was inconclusive: 28.2 µM [inhibitor, single point].
In the case of `Cc1cccc(C)c1OCc1cc(C(=O)N2CCC(C3CCCCC3)C2)no1` (configuration not stated), the Potency is reported as inconclusive: 25.1 µM [inhibitor, full curve, poor fit].
With `CCn1cc(C(=O)N2CCN(c3cccc(C)c3C)CC2)c(=O)c2ccc(C)nc21` the Potency was inconclusive: 89.1 µM [inhibitor, single point].
`COc1cccc(N2CC(O)=C(c3nc4ccccc4c(=O)[nH]3)C2=N)c1` was tested, and the “activity change, negative = inhibition” value was inactive: -6.53%.
With `COCc1c(C(=O)Nc2ccc3nc(N4CCOCC4)sc3c2)oc2ccccc12` the Potency was inconclusive: 31.6 µM [inhibitor, full curve, poor fit].
In the case of `Cc1ccc(C(=O)Nc2cccc(-c3nc4ncccc4o3)c2)cc1`, the Potency is reported as inconclusive: 7.94 µM [inhibitor, full curve, poor fit].
In the case of `O=[N+]([O-])c1cc(S(=O)(=O)N2CCCCCC2)ccc1F`, the Potency is reported as inconclusive: 50.1 µM [inhibitor, partial curve].
`COC(=O)C1=C(C(=O)OC)C(c2ccccc2O)c2sc(=O)[nH]c2S1` (configuration not stated) was tested, and the Potency was inconclusive: 39.8 µM [inhibitor, full curve].
With `COc1ccccc1CNC(=O)COC(=O)c1ccc(C(=O)c2ccccc2)cc1` the Potency was inconclusive: 20 µM [inhibitor, full curve, poor fit].
For `C=CCOc1ccc(/C=N/Nc2ccccn2)cc1OC`, the Potency was inconclusive: 89.1 µM [inhibitor, single point].
